Test results from patent US11021442B2, “Process for the preparation of freeze-dried 2-[(3-aminopropyl)amino] ethanethiol formulation” (CLEVEXEL PHARMA, priority 2016, dated 2021).

Test: Conversion of disulfide WR-33278 into aminothiol by DTT in gel
Settings: room temperature

O[C@H](CS)[C@H](O)CS (racemic) [DTT, dithiothreitol]
Amifostine, purity profile 30 min after addition of DTT (5 mM DTT): 5.0 % Area | Aminothiol, purity profile 30 min after addition of DTT (5 mM DTT): 50.7 % Area | Disulfide, purity profile 30 min after addition of DTT (5 mM DTT): 44.3 % Area | Amifostine, purity profile 30 min after addition of DTT (41 mM DTT): 6.2 % Area | Aminothiol, purity profile 30 min after addition of DTT (41 mM DTT): 93.4 % Area | Disulfide, purity profile 30 min after addition of DTT (41 mM DTT): 0.4 % Area | Amifostine, purity profile 30 min after addition of DTT (81 mM DTT): 7.0 % Area | Aminothiol, purity profile 30 min after addition of DTT (81 mM DTT): 90.5 % Area | Disulfide, purity profile 30 min after addition of DTT (81 mM DTT): 2.6 % Area
